What all share (experiment): co-IP
Test [1] addresses T1, Dsn1-6His-3Flag (S. cerevisiae) (UniProt P40568).
T1 sequence: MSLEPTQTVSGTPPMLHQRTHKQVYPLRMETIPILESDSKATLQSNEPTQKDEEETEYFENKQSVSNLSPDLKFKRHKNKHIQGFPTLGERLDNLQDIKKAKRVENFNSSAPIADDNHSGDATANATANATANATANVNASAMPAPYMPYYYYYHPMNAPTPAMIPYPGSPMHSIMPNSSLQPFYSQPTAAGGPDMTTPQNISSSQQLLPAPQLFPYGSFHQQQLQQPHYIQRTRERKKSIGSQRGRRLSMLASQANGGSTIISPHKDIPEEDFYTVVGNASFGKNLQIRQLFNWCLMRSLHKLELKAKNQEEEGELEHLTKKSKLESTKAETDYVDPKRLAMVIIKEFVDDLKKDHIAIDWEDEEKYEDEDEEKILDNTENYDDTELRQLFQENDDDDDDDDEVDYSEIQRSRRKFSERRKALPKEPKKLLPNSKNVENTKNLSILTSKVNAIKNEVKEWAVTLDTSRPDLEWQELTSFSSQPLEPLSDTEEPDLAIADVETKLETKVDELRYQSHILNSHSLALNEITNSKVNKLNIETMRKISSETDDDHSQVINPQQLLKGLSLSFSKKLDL

Chains of the proteins cited; added tags and fusions are not shown.
UniProt Q04477: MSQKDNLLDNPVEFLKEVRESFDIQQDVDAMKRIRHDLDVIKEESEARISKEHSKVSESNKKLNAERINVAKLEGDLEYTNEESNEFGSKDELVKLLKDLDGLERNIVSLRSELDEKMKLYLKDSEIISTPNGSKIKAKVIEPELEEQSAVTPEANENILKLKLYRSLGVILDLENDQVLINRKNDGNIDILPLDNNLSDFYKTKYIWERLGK
UniProt P40460: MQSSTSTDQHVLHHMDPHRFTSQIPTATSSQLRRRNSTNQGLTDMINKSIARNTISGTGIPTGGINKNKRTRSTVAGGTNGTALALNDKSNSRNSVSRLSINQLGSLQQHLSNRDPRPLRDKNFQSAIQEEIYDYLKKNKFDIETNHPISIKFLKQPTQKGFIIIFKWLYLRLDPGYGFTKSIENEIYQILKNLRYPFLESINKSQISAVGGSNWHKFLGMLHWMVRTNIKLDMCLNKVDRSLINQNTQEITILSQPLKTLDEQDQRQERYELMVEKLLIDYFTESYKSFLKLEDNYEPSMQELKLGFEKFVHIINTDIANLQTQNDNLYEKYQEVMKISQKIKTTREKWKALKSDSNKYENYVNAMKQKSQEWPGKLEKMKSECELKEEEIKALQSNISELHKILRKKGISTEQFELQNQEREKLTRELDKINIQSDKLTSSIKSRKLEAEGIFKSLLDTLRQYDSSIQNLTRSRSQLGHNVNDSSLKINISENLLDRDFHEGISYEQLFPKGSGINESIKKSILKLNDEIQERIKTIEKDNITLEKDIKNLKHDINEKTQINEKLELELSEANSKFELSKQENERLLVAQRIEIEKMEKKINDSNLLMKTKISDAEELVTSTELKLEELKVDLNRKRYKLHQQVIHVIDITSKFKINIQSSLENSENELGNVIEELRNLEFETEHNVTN

The target of test [2] is Spc24-6His-3Flag (S. cerevisiae) (UniProt Q04477).
Test [3] addresses T1, Dsn1-6His-3Flag (S. cerevisiae). The source holds these as a separate data set.

Read-outs that look alike come from different tables or passages of the source. These are yes or no findings as the source states them, for the method shown. In cells and extracts the contact can be indirect. Some results given as binding are weak or reduced against the parent protein; the word gives no strength. For some of these results: Sequences can lack the tags named with a protein.

“Stu2^ccΔ::bZIP-3V5 (stu2(Δ658-761::GDGAGL linker-GCN4(249-281) bZIP-GDGAGL linker)-3V5) (from UniProt P46675;P03069)”: in test [1], the binding result was “binds”.
In the case of Ndc80 (from UniProt P40460 1-691), the binding result in test [2] and in test [1] was “binds” in each case.

B1: Stu2^ccΔ-3V5 (stu2(Δ658-761::GDGAGL linker)-3V5) (domain or fragment, UniProt P46675)
chain: MSGEEEVDYTTLPLEERLTYKLWKARLEAYKELNQLFRNSVGDISRDDNIQIYWRDPTLFAQYITDSNVVAQEQAIVALNSLIDAFASSSLKNAHNITLISTWTPLLVEKGLTSSRATTKTQSMSCILSLCGLDTSITQSVELVIPFFEKKLPKLIAAAANCVYELMAAFGLTNVNVQTFLPELLKHVPQLAGHGDRNVRSQTMNLIVEIYKVTGNNSDLLEEILFKKLKPIQVKDLHKLFAKVGDEPSSSKMLFEWEKRELEKKRSQEEEARKRKSILSNDEGEYQIDKDGDTLMGMETDMPPSKQQSGVQIDTFSMLPEETILDKLPKDFQERITSSKWKDRVEALEEFWDSVLSQTKKLKSTSQNYSNLLGIYGHIIQKDANIQAVALAAQSVELICDKLKTPGFSKDYVSLVFTPLLDRTKEKKPSVIEAIRKALLTICKYYDPLASSGRNEDMLKDILEHMKHKTPQIRMECTQLFNASMKEEKDGYSTLQRYLKDEVVPIVIQIVNDTQPAIRTIGFESFAILIKIFGMNTFVKTLEHLDNLKRKKIEETVKTLPNFSIASGSTHSTIETNKQTGPMENKFLLKKSSVLPSKRVASSPLRNDNKSKVNPIGSVASASKPSMVAANNKSRVLLTSKSLATPKNVVANSTDKNGDGAGLNLQSMGTISSYSIPSSTVSSNYGVKSLSSALPFKEEEDVRRKEDVNYERRSSESIGDLPHRVNSLNIRPYRKNGTGVSSVSDDLDIDFNDSFASEESYKRAAAVTSTLKARIEKMKAKSRREGTTRT
B1: the binding result in test [3] is “no binding”.

B2: Stu2^SK-richΔ-3V5 (stu2(Δ551-657::GDGAGL linker)-3V5) (domain or fragment, UniProt P46675)
chain: MSGEEEVDYTTLPLEERLTYKLWKARLEAYKELNQLFRNSVGDISRDDNIQIYWRDPTLFAQYITDSNVVAQEQAIVALNSLIDAFASSSLKNAHNITLISTWTPLLVEKGLTSSRATTKTQSMSCILSLCGLDTSITQSVELVIPFFEKKLPKLIAAAANCVYELMAAFGLTNVNVQTFLPELLKHVPQLAGHGDRNVRSQTMNLIVEIYKVTGNNSDLLEEILFKKLKPIQVKDLHKLFAKVGDEPSSSKMLFEWEKRELEKKRSQEEEARKRKSILSNDEGEYQIDKDGDTLMGMETDMPPSKQQSGVQIDTFSMLPEETILDKLPKDFQERITSSKWKDRVEALEEFWDSVLSQTKKLKSTSQNYSNLLGIYGHIIQKDANIQAVALAAQSVELICDKLKTPGFSKDYVSLVFTPLLDRTKEKKPSVIEAIRKALLTICKYYDPLASSGRNEDMLKDILEHMKHKTPQIRMECTQLFNASMKEEKDGYSTLQRYLKDEVVPIVIQIVNDTQPAIRTIGFESFAILIKIFGMNTFVKTLEHLDNLKRGDGAGLEKLIEEYKYRLQKLQNDEMIWTKERQSLLEKMNNTENYKIEMIKENEMLREQLKEAQSKLNEKNIQLRSKEIDVNKLSDRVLSLENELRNMEIELDRNKKRNDTNLQSMGTISSYSIPSSTVSSNYGVKSLSSALPFKEEEDVRRKEDVNYERRSSESIGDLPHRVNSLNIRPYRKNGTGVSSVSDDLDIDFNDSFASEESYKRAAAVTSTLKARIEKMKAKSRREGTTRT
Take B2: the binding result in test [3] is on record as “binds”.

B3: Stu2-3V5 (STU2^WT) (protein, UniProt P46675 1-888)
chain: MSGEEEVDYTTLPLEERLTYKLWKARLEAYKELNQLFRNSVGDISRDDNIQIYWRDPTLFAQYITDSNVVAQEQAIVALNSLIDAFASSSLKNAHNITLISTWTPLLVEKGLTSSRATTKTQSMSCILSLCGLDTSITQSVELVIPFFEKKLPKLIAAAANCVYELMAAFGLTNVNVQTFLPELLKHVPQLAGHGDRNVRSQTMNLIVEIYKVTGNNSDLLEEILFKKLKPIQVKDLHKLFAKVGDEPSSSKMLFEWEKRELEKKRSQEEEARKRKSILSNDEGEYQIDKDGDTLMGMETDMPPSKQQSGVQIDTFSMLPEETILDKLPKDFQERITSSKWKDRVEALEEFWDSVLSQTKKLKSTSQNYSNLLGIYGHIIQKDANIQAVALAAQSVELICDKLKTPGFSKDYVSLVFTPLLDRTKEKKPSVIEAIRKALLTICKYYDPLASSGRNEDMLKDILEHMKHKTPQIRMECTQLFNASMKEEKDGYSTLQRYLKDEVVPIVIQIVNDTQPAIRTIGFESFAILIKIFGMNTFVKTLEHLDNLKRKKIEETVKTLPNFSIASGSTHSTIETNKQTGPMENKFLLKKSSVLPSKRVASSPLRNDNKSKVNPIGSVASASKPSMVAANNKSRVLLTSKSLATPKNVVANSTDKNEKLIEEYKYRLQKLQNDEMIWTKERQSLLEKMNNTENYKIEMIKENEMLREQLKEAQSKLNEKNIQLRSKEIDVNKLSDRVLSLENELRNMEIELDRNKKRNDTNLQSMGTISSYSIPSSTVSSNYGVKSLSSALPFKEEEDVRRKEDVNYERRSSESIGDLPHRVNSLNIRPYRKNGTGVSSVSDDLDIDFNDSFASEESYKRAAAVTSTLKARIEKMKAKSRREGTTRT
In the case of B3, the binding result in test [3] is “binds”.

B4: Stu2^C-termΔ(855-888)-3V5 (stu2(Δ855-888)-3V5) (domain or fragment, UniProt P46675 1-854)
chain: MSGEEEVDYTTLPLEERLTYKLWKARLEAYKELNQLFRNSVGDISRDDNIQIYWRDPTLFAQYITDSNVVAQEQAIVALNSLIDAFASSSLKNAHNITLISTWTPLLVEKGLTSSRATTKTQSMSCILSLCGLDTSITQSVELVIPFFEKKLPKLIAAAANCVYELMAAFGLTNVNVQTFLPELLKHVPQLAGHGDRNVRSQTMNLIVEIYKVTGNNSDLLEEILFKKLKPIQVKDLHKLFAKVGDEPSSSKMLFEWEKRELEKKRSQEEEARKRKSILSNDEGEYQIDKDGDTLMGMETDMPPSKQQSGVQIDTFSMLPEETILDKLPKDFQERITSSKWKDRVEALEEFWDSVLSQTKKLKSTSQNYSNLLGIYGHIIQKDANIQAVALAAQSVELICDKLKTPGFSKDYVSLVFTPLLDRTKEKKPSVIEAIRKALLTICKYYDPLASSGRNEDMLKDILEHMKHKTPQIRMECTQLFNASMKEEKDGYSTLQRYLKDEVVPIVIQIVNDTQPAIRTIGFESFAILIKIFGMNTFVKTLEHLDNLKRKKIEETVKTLPNFSIASGSTHSTIETNKQTGPMENKFLLKKSSVLPSKRVASSPLRNDNKSKVNPIGSVASASKPSMVAANNKSRVLLTSKSLATPKNVVANSTDKNEKLIEEYKYRLQKLQNDEMIWTKERQSLLEKMNNTENYKIEMIKENEMLREQLKEAQSKLNEKNIQLRSKEIDVNKLSDRVLSLENELRNMEIELDRNKKRNDTNLQSMGTISSYSIPSSTVSSNYGVKSLSSALPFKEEEDVRRKEDVNYERRSSESIGDLPHRVNSLNIRPYRKNGTGVSSVSDDLDIDFNDSFA
Take B4: in test [3], the binding result is listed as “no binding”.

Values taken from publication doi:10.1101/453811.
